Record: PubChem BioAssay AID1259424 (University of Nebraska Medical Center, 2018)
Assay: 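Find knockdowns that reproduce the expression shifts seen after KSR1 loss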 (primary screen). System: human HCT116 colon cancer cells. Reagent: siRNA pool against human genes, 50 nM. Read-out: 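Log2 levels of six mRNAs (branched-DNA multiplex), adjusted by two reference genes and the non-targeting median, then scored against the average KSR1 knockdown pattern as Pearson r and euclidean distance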. Reading the numbers: mean correlation with KSR1 profile and KSR1 correlation: higher = expression change more like KSR1 knockdown; mean distance from KSR1 profile: higher = expression change less like KSR1 knockdown.
In all, the deposit lists about 14,000 reagents; shown is a random part of them. 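Higher correlation or smaller distance means closer resemblance to KSR1 loss; control wells, including KSR1 knockdowns, recur on many plates.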 Not all columns of the deposit are shown. Not stated in the record: the time to read-out.

target,mean correlation with KSR1 profile,mean distance from KSR1 profile,"KSR1 correlation, replicate 1","KSR1 correlation, replicate 2"
UGT1A6,-0.388,1.87,-0.393,-0.492
ADAMTS20,0.0677,1.68,0.105,-0.0064
CGA,0.0299,2.44,0.277,-0.203
LAX1,-0.601,3.51,-0.632,-0.207
SNRPB2,-0.546,2.27,-0.56,-0.576
ARVCF,-0.253,1.48,-0.0052,-0.6
SRSF1,0.103,3.92,0.135,0.0247
ZNF274,-0.326,2.76,-0.184,-0.382
ABHD14B,0.206,5.19,0.199,0.0901
LRRN2,-0.0869,2.2,0.00529,-0.482
HSD17B6,-0.552,2.2,-0.407,-0.747
CFAP97,-0.366,2.61,-0.208,-0.176
UTP4,-0.219,2.41,-0.0727,-0.202
SIK1,0.476,1.89,0.68,0.311
TBL2,0.298,1.5,0.216,-0.115
NLGN2,-0.423,3.56,-0.446,-0.551
CHRND,-0.163,2.66,-0.013,-0.21
SLC29A1,-0.318,2.11,-0.462,-0.561
ADAM3B,-0.0526,2.68,-0.304,-0.13
P2RY6,-0.137,4.13,0.0146,0.0164

Sorted by “mean distance from KSR1 profile” (lowest first): some entries from above
target,mean correlation with KSR1 profile,mean distance from KSR1 profile,"KSR1 correlation, replicate 1","KSR1 correlation, replicate 2"
TBL2,0.298,1.5,0.216,-0.115
SIK1,0.476,1.89,0.68,0.311
